Data published in PubChem BioAssay AID504594 (Broad Institute, 2011).
The campaign covered roughly 2,000 compounds. Fewer than 10 were called active.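 The calls were made as follows: active = growth inhibition of at least 75% in every replicate, which also brings the mean inhibition to 75% or more; inconclusive = mean inhibition 75% or more but some replicate under 75%; inactive = the rest.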 This is one part of the list.

Assay: reduced viability of yeast carrying PfHsp90 – S. cerevisiae, BacTiter-Glo luminescence, antimalarial PfHsp90 inhibitor project, primary screen (AID 504594);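 also: 0% = DMSO neutral control wells and 100% = 20 µM radicicol control wells; higher value means stronger growth inhibition because the sign is flipped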
Conditions: S. cerevisiae expressing PfHsp90, BacTiter-Glo growth, 48 h; at 9.4 µM; hits give high values

| Structure (SMILES) | growth inhibition |
| --- | --- |
| N/C(=N\OC(=O)CCCOc1ccc(Cl)cc1Cl)c1ccccn1 | inactive: 10% |
| COc1cc(C2Nc3ccccc3C(=O)N2c2ccccc2)ccc1O (stereo not given) | inactive: 1.04% |
| Cc1ccc(-c2nn(-c3cccc(F)c3)cc2CN2CCN(c3ccccn3)CC2)o1 | inactive: -8.98% |
| COc1cc(C(=O)N/C(=C\c2cn(C)c3ccccc23)C(=O)NCCCO)cc(OC)c1OC | inactive: 13.5% |
| CCn1ccnc1CN(C)Cc1cn(-c2cccc(C)c2)nc1-c1cccc(F)c1 | inactive: 3.06% |
| Cc1ccc2nc(N=C(N)N)nc(C)c2c1 | inactive: -4.91% |
| CC1(C)CC(=O)c2cc(O)ccc2O1 | inactive: 5.59% |
| c1cnc2c(c1)ccc1cccnc12 | inactive: 16.5% |
| CCOc1ccc(OCCSc2nc3ccccc3[nH]2)cc1 | inactive: 16.1% |
| CC(C)C1CC(CCNCc2ccc(N(C)C)cc2)(c2ccccc2)CCO1 (stereo not given) | inactive: 7.99% |
| CN1CCc2cccc3c2[C@H]1Cc1ccc(O)c(O)c1-3 | inactive: 3.77% |
| CCC(NC(C)C)C(O)c1ccc(O)c(O)c1 (stereo not given) | inactive: 4.7% |
| COc1ccccc1-c1c(C(F)(F)F)oc2cc(OC(=O)c3ccc([N+](=O)[O-])cc3)ccc2c1=O | inactive: -25% |
| CN1CCN(C2=Nc3cc(Cl)ccc3Nc3ccccc32)CC1 | inactive: 13.4% |
| Cc1cccc(-n2c(Cc3ccccc3)n[nH]c2=S)c1 | inactive: -0.133% |
| O[C@@H](CNC[C@H](O)c1ccccc1)c1ccccc1 | inactive: 6.3% |
| Cc1nc2ccccc2n1CC(=O)NC1CCCC1 | inactive: -8.15% |
| O=C(Nc1cccc(Cl)c1)N1CCN2C(=O)c3ccccc3C12c1ccccc1 (stereo not given) | inactive: 8% |
| CC(C)(C)c1csc(N/N=C/c2cccnc2)n1 | inactive: -25.8% |
| NC12CC3CC(CC(C3)C1)C2 | inactive: -15.1% |

3 compounds from above, ordered by SMILES length, rising.

| Structure (SMILES) | growth inhibition |
| --- | --- |
| Cc1ccc2nc(N=C(N)N)nc(C)c2c1 | inactive: -4.91% |
| O[C@@H](CNC[C@H](O)c1ccccc1)c1ccccc1 | inactive: 6.3% |
| COc1ccccc1-c1c(C(F)(F)F)oc2cc(OC(=O)c3ccc([N+](=O)[O-])cc3)ccc2c1=O | inactive: -25% |
